Data from paper PMC7819943, “Rice protein-binding microarrays: a tool to detect cis-acting elements near promoter regions in rice”.
The other results are listed elsewhere or left out.

The chains behind the UniProt entries cited, without tags or fusion partners.
UniProt Q0JBA9, entry or part of it: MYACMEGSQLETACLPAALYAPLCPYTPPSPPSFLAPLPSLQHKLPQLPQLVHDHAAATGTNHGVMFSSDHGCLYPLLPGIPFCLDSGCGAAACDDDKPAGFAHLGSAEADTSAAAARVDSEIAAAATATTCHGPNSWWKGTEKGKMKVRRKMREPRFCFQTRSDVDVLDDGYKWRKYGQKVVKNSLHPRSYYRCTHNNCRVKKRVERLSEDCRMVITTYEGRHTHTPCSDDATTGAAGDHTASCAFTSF

Molecular target: OsWRKY34 (Oryza sativa, UniProt Q0JBA9 1-250)
Test: protein-binding microarray (RPBM); PBS, 2% BSA, 51.3 ng/ul salmon testes DNA, 50 uM zinc acetate, 200 nM TF, 25 C, 1 h; high values mean tight binding
Details: protein: recombinant; tags: N-terminal polyhistidine and DsRed monomer fusion (pET32a); label: CyDye5-dUTP incorporated in the synthesized complementary strand; 3' TTTTT single-stranded linker to array surface; dsDNA, one strand shown
Method in brief: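 Transcription factors were made in E. coli BL21-CodonPlus as N-terminal fusions to a polyhistidine tag and DsRed, then purified on Ni–NTA. After primer extension with Cy5-dUTP and blocking with 2% BSA, a custom Agilent array was exposed for 1 h at 25 °C to 200 nM protein in PBS, 2% BSA, salmon testes DNA and 50 µM zinc acetate. Washed arrays were scanned on an Axon 4000B, and the binding signal is per-feature fluorescence intensity in arbitrary units.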

Row | Sequence | binding signal
1 | AATCCGGCGAGATTTCCGAAAAACTGCCCCGCACGCGCACCGGAGTCACCTAGTGCAG | 8430 fluorescence intensity (a.u.)
2 | TCGTTCCATTTCTATTATCTGCTTCTTGTTCAGCATCGATCGGAGTCACCTAGTGCAG | 8890 fluorescence intensity (a.u.)
3 | AGTCAACAGGGAGGGTAAAATAAGAAAGCAACAGCAAGAGCGGAGTCACCTAGTGCAG | 9730 fluorescence intensity (a.u.)
4 | CTCTCCCCGCGCGCGCTTTTCCAACTAGCCGTTGGTGCTCCGGAGTCACCTAGTGCAG | 8510 fluorescence intensity (a.u.)
5 | TTTTGTTTTGCTTTTGCTGTTTTCTTTCAGCCTTTGTGTACGGAGTCACCTAGTGCAG | 10800 fluorescence intensity (a.u.)
6 | TGCGTGGGTGCGAGGAATCGGGCTGGTTATTGATGGATCCCGGAGTCACCTAGTGCAG | 8700 fluorescence intensity (a.u.)
7 | TTATTTTTACGCGTCTTGTAGTTAAGTACAGTATATTTTTCGGAGTCACCTAGTGCAG | 10500 fluorescence intensity (a.u.)
8 | TCCCATTTACCACGTCAGCAAAAACCATTTCCCAAAACATCGGAGTCACCTAGTGCAG | 9350 fluorescence intensity (a.u.)
9 | GCCCGCCACCCGCCACCCACATCGCGCTCGCCGATCGCCGCGGAGTCACCTAGTGCAG | 8540 fluorescence intensity (a.u.)
10 | GAGTTGACTAGGATTCAAGCCAATTTTTATCCAACCAAAACGGAGTCACCTAGTGCAG | 8330 fluorescence intensity (a.u.)
11 | TCTGTATGGTCTACTTGTTTGATTGATTGATAATTTTACACGGAGTCACCTAGTGCAG | 9240 fluorescence intensity (a.u.)
12 | AAATCCGCTTCCAATTCGCGAAACTACACTAGTCGTAAGCCGGAGTCACCTAGTGCAG | 8160 fluorescence intensity (a.u.)
13 | TTTTGTAGTTAATGTATAGGTATCAGTTCCAAGGGGCTATCGGAGTCACCTAGTGCAG | 9710 fluorescence intensity (a.u.)
14 | TCTGCAGTGTGTTGAGTGCGTCGGGAGGGCTCAAGGATGGCGGAGTCACCTAGTGCAG | 8810 fluorescence intensity (a.u.)
15 | AGGTCAGGCTGAGATGCCATGATTCTTGCAGCACATAGAACGGAGTCACCTAGTGCAG | 8170 fluorescence intensity (a.u.)
16 | CCACAGCCACACTCTCTCCATTATCTAACTGCTCCTTTAACGGAGTCACCTAGTGCAG | 8470 fluorescence intensity (a.u.)
17 | GGGTTAAGGGTGGTTGTGCCTTATATTTTGTAATGGAGGACGGAGTCACCTAGTGCAG | 8070 fluorescence intensity (a.u.)
18 | CCCGGTTGACCACTACTTTTGCGATTTTTCATAAAAATAACGGAGTCACCTAGTGCAG | 8260 fluorescence intensity (a.u.)
19 | GACGGCCGACAAGCTCGGAGACGAAGACAAAGACGGACGACGGAGTCACCTAGTGCAG | 8490 fluorescence intensity (a.u.)
20 | ATGAGAGCTGTTGCACTTGCACACCACTCTCTCGTTCTCTCGGAGTCACCTAGTGCAG | 8990 fluorescence intensity (a.u.)
21 | TCTTCCAGTATCGTACCCGTCCTGTCACAGTAATATGTAACGGAGTCACCTAGTGCAG | 10900 fluorescence intensity (a.u.)
22 | ACCGCTCGCTTCCCACCGGACCGTTCCGAAGCCACCCAACCGGAGTCACCTAGTGCAG | 9460 fluorescence intensity (a.u.)
23 | GAGTAAGTACCCGACCTAGCCCATCGCGTCTGGCCCCACCCGGAGTCACCTAGTGCAG | 9880 fluorescence intensity (a.u.)
24 | ATATTCGTTTTTTTTCTCTCAGTCACATTCTTTTCTTTTCCGGAGTCACCTAGTGCAG | 9430 fluorescence intensity (a.u.)
25 | ACGCCTCATCAGTCATCACCCTCTCAACGCGCGACTCACTCGGAGTCACCTAGTGCAG | 8820 fluorescence intensity (a.u.)
26 | CGATCAAACATACATCCTTCCATTTGTATACACGCTACATCGGAGTCACCTAGTGCAG | 9210 fluorescence intensity (a.u.)
27 | TCTCACATGTTTGACCATTCGTCTTATTCAAAATTTTTATCGGAGTCACCTAGTGCAG | 12100 fluorescence intensity (a.u.)

Row | Sequence | binding signal
28 | ACCCGGCGTGTGCGACGTGTGGACTTCTGCAACCCTCTCACGGAGTCACCTAGTGCAG | 8930 fluorescence intensity (a.u.)
29 | CTACCCGCGGTTGCACTCCACCACTCGACCACACGTAGCTCGGAGTCACCTAGTGCAG | 8090 fluorescence intensity (a.u.)
30 | TTCTTTTTTTTCTTTTTCTCCGATTAATGTGGGAATTTCTCGGAGTCACCTAGTGCAG | 9620 fluorescence intensity (a.u.)
31 | CCATACAACTCTACACTCATCCTAAGCGTTTCGTACACATCGGAGTCACCTAGTGCAG | 8740 fluorescence intensity (a.u.)
32 | AATTATTCTCTCTTTTTTTTCTCTCTTGGTATTTCACTCTCGGAGTCACCTAGTGCAG | 8230 fluorescence intensity (a.u.)
33 | TCTTTTACCTGCGTGCCTTCACTCACACTAGCTTGAAACTCGGAGTCACCTAGTGCAG | 9430 fluorescence intensity (a.u.)
34 | CCTGAGACGATCGGATTCCTAACTGCAGCTCATGATTTTACGGAGTCACCTAGTGCAG | 9150 fluorescence intensity (a.u.)
35 | ATGCATGTTCCTTCTTTGTCTTTTTCTTTCCTCAATTCCCCGGAGTCACCTAGTGCAG | 8230 fluorescence intensity (a.u.)
36 | AACACACTTTCGAACACAACCTTAATTTTGAATAGTACCTCGGAGTCACCTAGTGCAG | 8940 fluorescence intensity (a.u.)
37 | TGCTGTCTCCACTCTACTGTACCCAGCCGCCACCGACTCGCGGAGTCACCTAGTGCAG | 8660 fluorescence intensity (a.u.)
38 | ACTTGACTGACTCTTATATTGCTCTTTTGTTTGGAAAATTCGGAGTCACCTAGTGCAG | 8610 fluorescence intensity (a.u.)
39 | GCATTAGATGTTTTATATATCCATTCACATTTACTTTATACGGAGTCACCTAGTGCAG | 10800 fluorescence intensity (a.u.)
40 | ACCACCGCACCCTCGCCATCATCTCACTCTACACACACACCGGAGTCACCTAGTGCAG | 8710 fluorescence intensity (a.u.)
41 | GACTGGTTTTTTTTGCATTCAGGCCCCTTGCCGCCCCAACCGGAGTCACCTAGTGCAG | 9780 fluorescence intensity (a.u.)
42 | ATCTTTCTAACATAAACACTCCATCTGTTCAGCATTTTTACGGAGTCACCTAGTGCAG | 9300 fluorescence intensity (a.u.)
43 | AAGGTATGGTTCTTCATTCTTGTCATTTTCTTTTGCAGCACGGAGTCACCTAGTGCAG | 8220 fluorescence intensity (a.u.)
44 | ATCTTACCTTTCTTCTATAGCTATGTCTAGTTTCTATTTGCGGAGTCACCTAGTGCAG | 8150 fluorescence intensity (a.u.)
45 | CTTCTCGTGCTCTCCCCAAAACCCCGCGCGCCCAATTCACCGGAGTCACCTAGTGCAG | 8310 fluorescence intensity (a.u.)
46 | GCACTAGACCTTCTCTCTTTCAGGATTGATTCCCACTCACCGGAGTCACCTAGTGCAG | 10100 fluorescence intensity (a.u.)
47 | TTTAGGACTTCCGTCATTTTTTCCGTCCGTCTTGATCGTTCGGAGTCACCTAGTGCAG | 8910 fluorescence intensity (a.u.)
48 | AATTTTTTGTTTTGTCAGCTGAGTTCGCGAGCGTTGGATTCGGAGTCACCTAGTGCAG | 8270 fluorescence intensity (a.u.)
49 | ATATGACCCTTTCGGAGCTATTTTTTTCGTGTCATCATGCCGGAGTCACCTAGTGCAG | 9840 fluorescence intensity (a.u.)
50 | ATCTTCTCCTAGGTGCAATCCTGTCTTTCAAAAGAGGCCTCGGAGTCACCTAGTGCAG | 8710 fluorescence intensity (a.u.)
51 | CAGGGCTTCTTTTTGTTATCATGCAACCACCTATTAAACTCGGAGTCACCTAGTGCAG | 10900 fluorescence intensity (a.u.)
52 | TGTAAATACAAATCTTCGCATCTCCACCGTTCATTCTCATCGGAGTCACCTAGTGCAG | 10600 fluorescence intensity (a.u.)
53 | GTTTAAGTTTTTTTTTGGTCAATTGCAGGGTTTATTCAACCGGAGTCACCTAGTGCAG | 8240 fluorescence intensity (a.u.)
54 | CTCATGTGGCATTTTTTGTGGGTCCAAGGACTATATTAACCGGAGTCACCTAGTGCAG | 8740 fluorescence intensity (a.u.)

Three entries from above, in CSV form:
Row,Sequence,binding signal
39,GCATTAGATGTTTTATATATCCATTCACATTTACTTTATACGGAGTCACCTAGTGCAG,10800 fluorescence intensity (a.u.)
40,ACCACCGCACCCTCGCCATCATCTCACTCTACACACACACCGGAGTCACCTAGTGCAG,8710 fluorescence intensity (a.u.)
41,GACTGGTTTTTTTTGCATTCAGGCCCCTTGCCGCCCCAACCGGAGTCACCTAGTGCAG,9780 fluorescence intensity (a.u.)
